In the supplement of paper PMC6411743:
± gives the standard deviation of the averaged measurements. This is a selection; strong and weak results do not stand in their true shares. Most values lie at the level of the controls, where differences are scatter.

Chains of the proteins cited; added tags and fusions are not shown. Lines headed by an entry give the natural chain unless they say otherwise; changes in a name come on top.
UniProt P20936: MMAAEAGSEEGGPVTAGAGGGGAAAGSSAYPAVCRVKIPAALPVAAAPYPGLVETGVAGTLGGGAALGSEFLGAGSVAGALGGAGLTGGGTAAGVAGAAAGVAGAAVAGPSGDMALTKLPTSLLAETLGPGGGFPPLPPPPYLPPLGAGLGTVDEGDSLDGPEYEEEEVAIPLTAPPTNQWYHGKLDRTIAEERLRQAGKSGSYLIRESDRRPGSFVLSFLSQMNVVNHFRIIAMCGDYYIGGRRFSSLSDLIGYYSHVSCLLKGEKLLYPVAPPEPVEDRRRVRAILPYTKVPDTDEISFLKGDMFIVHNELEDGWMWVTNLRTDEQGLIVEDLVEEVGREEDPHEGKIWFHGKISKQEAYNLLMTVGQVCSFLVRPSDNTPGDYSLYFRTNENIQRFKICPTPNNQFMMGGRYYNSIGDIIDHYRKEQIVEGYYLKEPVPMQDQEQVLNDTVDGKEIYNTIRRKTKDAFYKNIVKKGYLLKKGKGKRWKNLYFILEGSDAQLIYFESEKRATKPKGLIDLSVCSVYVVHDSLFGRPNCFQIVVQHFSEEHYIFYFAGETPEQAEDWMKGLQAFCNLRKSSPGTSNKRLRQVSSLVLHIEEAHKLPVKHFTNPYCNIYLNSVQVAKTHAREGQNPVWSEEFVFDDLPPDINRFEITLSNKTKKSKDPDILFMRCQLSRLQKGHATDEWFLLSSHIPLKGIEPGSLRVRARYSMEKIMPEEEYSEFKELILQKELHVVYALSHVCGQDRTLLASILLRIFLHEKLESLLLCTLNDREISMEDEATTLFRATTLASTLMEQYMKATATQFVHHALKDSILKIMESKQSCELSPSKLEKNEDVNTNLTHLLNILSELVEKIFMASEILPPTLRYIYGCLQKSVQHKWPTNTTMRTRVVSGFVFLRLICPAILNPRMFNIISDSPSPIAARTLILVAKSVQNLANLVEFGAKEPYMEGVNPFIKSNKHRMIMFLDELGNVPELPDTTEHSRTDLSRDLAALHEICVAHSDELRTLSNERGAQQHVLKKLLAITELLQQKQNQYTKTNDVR
UniProt Q9NP50: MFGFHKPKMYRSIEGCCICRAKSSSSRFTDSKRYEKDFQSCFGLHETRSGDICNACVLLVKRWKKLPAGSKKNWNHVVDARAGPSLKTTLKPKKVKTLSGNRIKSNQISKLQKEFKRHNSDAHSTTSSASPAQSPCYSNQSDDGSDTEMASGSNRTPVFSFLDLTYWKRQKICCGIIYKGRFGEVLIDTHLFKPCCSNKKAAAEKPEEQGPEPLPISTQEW
UniProt P24001: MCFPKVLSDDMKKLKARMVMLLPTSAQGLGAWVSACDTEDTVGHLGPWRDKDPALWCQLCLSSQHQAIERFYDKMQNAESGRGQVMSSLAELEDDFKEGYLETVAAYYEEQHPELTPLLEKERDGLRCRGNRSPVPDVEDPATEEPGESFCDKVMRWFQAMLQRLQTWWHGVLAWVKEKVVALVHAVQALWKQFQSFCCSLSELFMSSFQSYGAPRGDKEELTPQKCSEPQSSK
UniProt Q04323: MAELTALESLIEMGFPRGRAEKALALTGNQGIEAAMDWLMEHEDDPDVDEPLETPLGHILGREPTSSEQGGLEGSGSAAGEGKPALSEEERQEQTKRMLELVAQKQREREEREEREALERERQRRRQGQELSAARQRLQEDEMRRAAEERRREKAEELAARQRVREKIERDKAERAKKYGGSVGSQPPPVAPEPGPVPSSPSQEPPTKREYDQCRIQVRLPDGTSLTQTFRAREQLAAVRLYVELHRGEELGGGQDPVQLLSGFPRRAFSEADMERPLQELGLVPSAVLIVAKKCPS
UniProt Q8IZ69: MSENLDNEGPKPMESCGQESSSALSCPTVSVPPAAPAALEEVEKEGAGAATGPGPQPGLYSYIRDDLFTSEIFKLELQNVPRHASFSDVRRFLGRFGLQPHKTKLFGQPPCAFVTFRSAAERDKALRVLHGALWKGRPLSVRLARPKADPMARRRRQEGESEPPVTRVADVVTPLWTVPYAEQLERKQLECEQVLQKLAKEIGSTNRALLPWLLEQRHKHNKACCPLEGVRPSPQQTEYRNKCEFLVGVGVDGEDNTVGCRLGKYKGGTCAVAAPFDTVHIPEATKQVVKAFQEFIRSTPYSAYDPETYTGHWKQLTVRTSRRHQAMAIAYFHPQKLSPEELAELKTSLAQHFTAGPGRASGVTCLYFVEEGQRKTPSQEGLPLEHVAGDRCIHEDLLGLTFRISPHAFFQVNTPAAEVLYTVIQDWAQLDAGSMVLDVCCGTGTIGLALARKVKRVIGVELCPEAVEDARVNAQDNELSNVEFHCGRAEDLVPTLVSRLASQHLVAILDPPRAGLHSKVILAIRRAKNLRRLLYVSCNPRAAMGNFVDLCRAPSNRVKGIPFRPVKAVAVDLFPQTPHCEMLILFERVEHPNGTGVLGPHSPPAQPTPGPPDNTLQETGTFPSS
UniProt Q12768: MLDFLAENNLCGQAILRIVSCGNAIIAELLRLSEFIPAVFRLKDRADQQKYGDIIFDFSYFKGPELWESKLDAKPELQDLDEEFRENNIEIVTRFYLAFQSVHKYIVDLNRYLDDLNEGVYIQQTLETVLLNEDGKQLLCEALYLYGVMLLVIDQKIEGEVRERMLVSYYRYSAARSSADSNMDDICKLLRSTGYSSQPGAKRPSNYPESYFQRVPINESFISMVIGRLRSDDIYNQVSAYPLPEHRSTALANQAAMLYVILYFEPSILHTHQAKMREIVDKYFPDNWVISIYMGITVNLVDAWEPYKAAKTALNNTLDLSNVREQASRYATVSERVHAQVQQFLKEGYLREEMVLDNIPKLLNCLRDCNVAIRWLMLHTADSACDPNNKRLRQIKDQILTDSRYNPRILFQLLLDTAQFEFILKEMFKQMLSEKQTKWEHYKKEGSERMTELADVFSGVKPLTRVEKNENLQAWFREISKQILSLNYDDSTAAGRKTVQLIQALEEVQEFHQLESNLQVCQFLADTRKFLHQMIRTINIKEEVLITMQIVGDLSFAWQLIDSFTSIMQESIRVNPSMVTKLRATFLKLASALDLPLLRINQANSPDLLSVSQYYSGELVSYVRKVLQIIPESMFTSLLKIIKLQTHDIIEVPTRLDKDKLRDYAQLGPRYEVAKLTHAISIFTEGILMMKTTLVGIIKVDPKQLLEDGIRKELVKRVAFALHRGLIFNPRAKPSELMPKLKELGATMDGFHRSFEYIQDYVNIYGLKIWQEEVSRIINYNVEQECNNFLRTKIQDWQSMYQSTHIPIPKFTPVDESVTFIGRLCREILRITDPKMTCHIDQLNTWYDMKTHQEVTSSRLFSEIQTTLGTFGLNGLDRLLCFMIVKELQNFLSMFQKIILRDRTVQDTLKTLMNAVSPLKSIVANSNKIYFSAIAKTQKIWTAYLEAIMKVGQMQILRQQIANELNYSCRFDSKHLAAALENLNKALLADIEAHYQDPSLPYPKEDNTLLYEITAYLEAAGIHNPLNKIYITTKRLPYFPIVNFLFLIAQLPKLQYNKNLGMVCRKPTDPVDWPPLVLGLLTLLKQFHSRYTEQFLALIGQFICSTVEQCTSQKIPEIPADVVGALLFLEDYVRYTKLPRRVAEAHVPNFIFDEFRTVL
UniProt P78559: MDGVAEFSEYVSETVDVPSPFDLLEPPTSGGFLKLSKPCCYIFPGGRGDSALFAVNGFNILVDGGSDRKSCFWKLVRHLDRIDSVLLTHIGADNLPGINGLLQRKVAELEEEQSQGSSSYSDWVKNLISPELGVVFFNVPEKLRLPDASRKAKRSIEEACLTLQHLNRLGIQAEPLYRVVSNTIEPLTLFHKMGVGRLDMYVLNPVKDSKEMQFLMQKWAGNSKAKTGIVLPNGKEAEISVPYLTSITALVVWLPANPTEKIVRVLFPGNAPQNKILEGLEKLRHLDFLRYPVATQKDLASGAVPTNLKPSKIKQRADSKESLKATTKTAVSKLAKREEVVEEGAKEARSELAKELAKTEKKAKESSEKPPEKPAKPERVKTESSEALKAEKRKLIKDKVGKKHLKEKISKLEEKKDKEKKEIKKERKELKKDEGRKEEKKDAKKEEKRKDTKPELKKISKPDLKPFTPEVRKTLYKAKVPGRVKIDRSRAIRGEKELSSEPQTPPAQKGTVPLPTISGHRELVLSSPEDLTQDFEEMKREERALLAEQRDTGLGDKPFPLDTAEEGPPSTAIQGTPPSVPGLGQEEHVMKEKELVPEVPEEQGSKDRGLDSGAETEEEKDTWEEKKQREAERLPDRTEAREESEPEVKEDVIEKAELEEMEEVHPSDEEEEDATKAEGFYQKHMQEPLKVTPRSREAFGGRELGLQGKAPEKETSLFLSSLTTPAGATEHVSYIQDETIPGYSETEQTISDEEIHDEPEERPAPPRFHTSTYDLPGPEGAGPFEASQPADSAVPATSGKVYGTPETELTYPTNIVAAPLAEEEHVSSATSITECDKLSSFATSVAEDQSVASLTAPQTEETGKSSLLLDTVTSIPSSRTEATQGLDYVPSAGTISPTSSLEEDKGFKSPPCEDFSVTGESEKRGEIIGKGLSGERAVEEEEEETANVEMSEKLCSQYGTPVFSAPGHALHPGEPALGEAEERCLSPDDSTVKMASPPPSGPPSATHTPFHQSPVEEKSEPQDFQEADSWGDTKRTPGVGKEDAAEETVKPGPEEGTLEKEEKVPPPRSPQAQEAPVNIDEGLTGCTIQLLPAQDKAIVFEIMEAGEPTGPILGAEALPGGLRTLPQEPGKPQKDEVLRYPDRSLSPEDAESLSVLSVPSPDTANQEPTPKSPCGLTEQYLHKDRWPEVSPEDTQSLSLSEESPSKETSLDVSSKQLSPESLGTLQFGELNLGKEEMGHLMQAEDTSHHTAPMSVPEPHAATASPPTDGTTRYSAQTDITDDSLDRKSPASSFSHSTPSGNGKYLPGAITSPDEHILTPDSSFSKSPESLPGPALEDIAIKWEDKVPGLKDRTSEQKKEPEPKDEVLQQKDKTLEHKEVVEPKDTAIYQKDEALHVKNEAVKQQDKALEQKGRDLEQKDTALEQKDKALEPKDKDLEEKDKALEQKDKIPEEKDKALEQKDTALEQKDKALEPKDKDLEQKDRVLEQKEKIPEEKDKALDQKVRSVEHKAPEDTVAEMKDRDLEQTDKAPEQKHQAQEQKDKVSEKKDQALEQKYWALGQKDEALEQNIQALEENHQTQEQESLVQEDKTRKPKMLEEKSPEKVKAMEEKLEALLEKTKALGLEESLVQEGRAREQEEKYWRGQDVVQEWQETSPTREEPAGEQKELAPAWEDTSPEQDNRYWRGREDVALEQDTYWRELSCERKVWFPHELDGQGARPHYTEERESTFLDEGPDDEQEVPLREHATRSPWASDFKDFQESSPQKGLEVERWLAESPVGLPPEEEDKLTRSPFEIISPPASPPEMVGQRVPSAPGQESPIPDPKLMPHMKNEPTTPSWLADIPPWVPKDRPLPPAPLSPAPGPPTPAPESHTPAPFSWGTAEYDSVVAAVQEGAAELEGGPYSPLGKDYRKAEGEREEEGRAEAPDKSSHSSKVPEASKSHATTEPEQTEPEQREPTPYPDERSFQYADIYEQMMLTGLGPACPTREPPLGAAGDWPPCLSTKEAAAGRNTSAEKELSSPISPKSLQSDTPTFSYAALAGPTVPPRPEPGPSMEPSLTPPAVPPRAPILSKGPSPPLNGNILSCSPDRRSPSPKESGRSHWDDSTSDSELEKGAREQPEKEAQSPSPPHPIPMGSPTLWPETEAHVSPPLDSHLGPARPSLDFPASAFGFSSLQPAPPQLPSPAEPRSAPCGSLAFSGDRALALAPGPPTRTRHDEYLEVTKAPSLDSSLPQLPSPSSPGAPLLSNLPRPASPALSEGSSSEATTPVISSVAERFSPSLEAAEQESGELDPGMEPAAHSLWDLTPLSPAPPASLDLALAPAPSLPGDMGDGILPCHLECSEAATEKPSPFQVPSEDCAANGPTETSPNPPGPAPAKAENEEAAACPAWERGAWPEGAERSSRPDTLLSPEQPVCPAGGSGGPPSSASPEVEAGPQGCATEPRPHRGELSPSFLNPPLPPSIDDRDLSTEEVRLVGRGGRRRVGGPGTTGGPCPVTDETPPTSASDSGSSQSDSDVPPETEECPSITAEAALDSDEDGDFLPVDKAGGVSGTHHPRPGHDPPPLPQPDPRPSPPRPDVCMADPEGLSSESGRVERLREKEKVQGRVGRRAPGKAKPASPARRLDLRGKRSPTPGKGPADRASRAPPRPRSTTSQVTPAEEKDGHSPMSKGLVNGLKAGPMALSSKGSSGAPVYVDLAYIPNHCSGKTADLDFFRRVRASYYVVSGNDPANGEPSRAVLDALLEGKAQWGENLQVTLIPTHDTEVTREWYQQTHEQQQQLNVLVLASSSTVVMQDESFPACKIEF
UniProt P60660, whole entry: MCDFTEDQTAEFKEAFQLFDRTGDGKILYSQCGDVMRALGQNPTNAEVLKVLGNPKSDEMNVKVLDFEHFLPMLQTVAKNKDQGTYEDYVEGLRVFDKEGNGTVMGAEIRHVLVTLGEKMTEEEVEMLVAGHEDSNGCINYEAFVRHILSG

Compound: Nc1ncnc2c1ncn2[C@@H]1O[C@H](COP(=O)(O)OP(=O)(O)NP(=O)(O)O)[C@@H](O)[C@H]1O [adenylyl imidodiphosphate]
Assay: NP40-soluble protein abundance relative to vehicle (solubility fold change) (ratio); higher = more soluble protein in presence of AMP-PNP
Method in brief: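 Data come from three independent experiments in which Dounce-homogenised Jurkat crude lysate was treated at eight concentrations from 0.1 to 10 mM. Treatment ran 10 min at room temperature and then 3 min at 37 °C, after which 0.8% NP40 and benzonase were added for 60 min at 4 °C before ultracentrifugation. The supernatant underwent TMT labelling and LC-MS/MS, and vsn-normalised intensities were expressed as fold change against the detergent-processed vehicle in each replicate.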

Target	NP40-soluble protein abundance (concentration: 0.1mM)	NP40-soluble protein abundance (concentration: 0.5mM)
F6S8M0 and related entries (UniProt P15586)	0.941 ± 0.052	0.989 ± 0.041
E9PGC0 and related entries (UniProt P20936)	1.02 ± 0.019	0.989 ± 0.015
F8W950 and related entries (UniProt Q13155)	1.03 ± 0.053	0.997 ± 0.043
F5GXJ1 and related entries (UniProt O75251)	1.03 ± 0.038	0.991 ± 0.089
E9PHY5 and related entries (UniProt O43491)	0.975 ± 0.021	1 ± 0.029
E9PF19 and related entries (UniProt Q9Y4P3)	0.974 ± 0.026	1 ± 0.072
F5GZ82 and related entries (UniProt Q9NP50)	0.973 ± 0.018	0.954 ± 0.051
E9PIV2 and related entries (UniProt P24001)	0.9885 ± 0.0019	1.01 ± 0.012
E9PJ81 and related entries (UniProt Q04323)	1 ± 0.023	1.01 ± 0.041
E9PHH9 and related entries (UniProt Q9BUI4)	1.01 ± 0.022	0.999 ± 0.034
F2Z2W7 and related entries (UniProt Q8IZ69)	1.036 ± 0.0024	1.01 ± 0.043
E7EQI7 and related entries (UniProt Q12768)	1.01 ± 0.05	0.993 ± 0.041
E7EM64 and related entries (UniProt Q7L5N1)	1.05 ± 0.014	1.01 ± 0.043
E7EW05 and related entries (UniProt Q9NVU7)	0.965 ± 0.02	0.981 ± 0.038
E7ES96 and related entries (UniProt P49768)	0.9747 ± 0.0069	0.981 ± 0.0099
F6TLX2 and related entries (UniProt Q9HC38)	0.979 ± 0.015	0.984 ± 0.031
F5GX11 and related entries (UniProt P25786)	1.01 ± 0.017	1.04 ± 0.034
F6V2D4 and related entries (UniProt O00214)	1.01 ± 0.027	0.999 ± 0.041
E9PPG8 and related entries (UniProt Q53FT3)	0.992 ± 0.025	0.9613 ± 0.0054
E9PGC8 (UniProt P78559)	0.984 ± 0.03	1 ± 0.046
G3V1V0 and related entries (UniProt P60660)	1.03 ± 0.062	1.17 ± 0.21

Quoted from the listing:
Value of F5GXJ1 and related entries (UniProt O75251) under NP40-soluble protein abundance (concentration: 0.5mM): 0.991 ± 0.089
Value of E9PF19 and related entries (UniProt Q9Y4P3) under NP40-soluble protein abundance (concentration: 0.1mM): 0.974 ± 0.026
